Reference: article PMC6203814
Results are given in words; binding and its absence hold for the method and conditions named. In cells and extracts the contact can be indirect. Some binding calls cover weakened binding; strength is not graded here. Sequences can lack the tags named with a protein.

The chains behind the UniProt entries cited, without tags or fusion partners. Residues count along the entry.
UniProt P32121: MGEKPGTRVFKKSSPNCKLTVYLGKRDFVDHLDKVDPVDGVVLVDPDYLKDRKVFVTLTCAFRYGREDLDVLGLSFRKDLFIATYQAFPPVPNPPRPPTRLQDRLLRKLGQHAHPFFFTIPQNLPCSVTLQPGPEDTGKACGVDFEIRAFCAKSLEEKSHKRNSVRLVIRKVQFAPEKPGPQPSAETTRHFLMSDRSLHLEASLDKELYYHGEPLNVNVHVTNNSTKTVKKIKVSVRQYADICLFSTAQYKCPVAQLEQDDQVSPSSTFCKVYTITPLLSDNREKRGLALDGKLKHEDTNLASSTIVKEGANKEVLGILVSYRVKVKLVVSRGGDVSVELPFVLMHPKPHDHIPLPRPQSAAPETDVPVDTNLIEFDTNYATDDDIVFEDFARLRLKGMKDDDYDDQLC
UniProt Q4ZJM9, residues 16-238: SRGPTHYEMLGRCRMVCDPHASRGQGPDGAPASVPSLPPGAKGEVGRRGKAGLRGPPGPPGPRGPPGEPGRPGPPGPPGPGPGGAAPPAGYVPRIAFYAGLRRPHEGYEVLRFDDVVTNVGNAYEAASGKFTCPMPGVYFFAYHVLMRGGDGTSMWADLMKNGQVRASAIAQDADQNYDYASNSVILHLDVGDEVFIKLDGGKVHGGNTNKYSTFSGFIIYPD

What was measured:
Myc-β-Arrestin2 [1] = target: Myc-β-Arrestin2 (UniProt P32121); experiment: co-IP; Myc-β-Arrestin2 and Flag-BAI3 with increasing amounts of co-expressed V5-Stabilin-2
Myc-β-Arrestin2 [2] = target: Myc-β-Arrestin2 (UniProt P32121); experiment: co-IP; immunoprecipitation of Myc-β-Arrestin2 from transfected cells, blot for Flag-BAI3^WT or Flag-BAI3^∆N; no Stabilin-2 co-expressed
HA-C1qL4^WT = HA-C1qL4^WT (UniProt Q4ZJM9); experiment: co-IP; anti-HA immunoprecipitation of HA-C1qL4 (WT or GW), blot for V5-tagged soluble BAI3 extracellular domain or its fragments

binding (Myc-β-Arrestin2 [1]) | binding (HA-C1qL4^WT) | Binder | binding (Myc-β-Arrestin2 [2])
binds | – | Full length human Flag-BAI3-mVenus (receptor, UniProt O60242 25-1522) AQDFWCSTLVKGVIYGSYSVSEMFPKNFTNCTWTLENPDPTKYSIYLKFSKKDLSCSNFSLLAYQFDHFSHEKIKDLLRKNHSIMQLCNSKNAFVFLQYDKNFIQIRRVFPTNFPGLQKKGEEDQKSFFEFLVLNKVSPSQFGCHVLCTWLESCLKSENGRTESCGIMYTKCTCPQHLGEWGIDDQSLILLNNVVLPLNEQTEGCLTQELQTTQVCNLTREAKRPPKEEFGMMGDHTIKSQRPRSVHEKRVPQEQADAAKFMAQTGESGVEEWSQWSTCSVTCGQGSQVRTRTCVSPYGTHCSGPLRESRVCNNTALCPVHGVWEEWSPWSLCSFTCGRGQRTRTRSCTPPQYGGRPCEGPETHHKPCNIALCPVDGQWQEWSSWSQCSVTCSNGTQQRSRQCTAAAHGGSECRGPWAESRECYNPECTANGQWNQWGHWSGCSKSCDGGWERRIRTCQGAVITGQQCEGTGEEVRRCNEQRCPAPYEICPEDYLMSMVWKRTPAGDLAFNQCPLNATGTTSRRCSLSLHGVAFWEQPSFARCISNEYRHLQHSIKEHLAKGQRMLAGDGMSQVTKTLLDLTQRKNFYAGDLLMSVEILRNVTDTFKRASYIPASDGVQNFFQIVSNLLDEENKEKWEDAQQIYPGSIELMQVIEDFIHIVGMGMMDFQNSYLMTGNVVASIQKLPAASVLTDINFPMKGRKGMVDWARNSEDRVVIPKSIFTPVSSKELDESSVFVLGAVLYKNLDLILPTLRNYTVINSKIIVVTIRPEPKTTDSFLEIELAHLANGTLNPYCVLWDDSKTNESLGTWSTQGCKTVLTDASHTKCLCDRLSTFAILAQQPREIIMESSGTPSVTLIVGSGLSCLALITLAVVYAALWRYIRSERSIILINFCLSIISSNILILVGQTQTHNKSICTTTTAFLHFFFLASFCWVLTEAWQSYMAVTGKIRTRLIRKRFLCLGWGLPALVVATSVGFTRTKGYGTDHYCWLSLEGGLLYAFVGPAAAVVLVNMVIGILVFNKLVSRDGILDKKLKHRAGQMSEPHSGLTLKCAKCGVVSTTALSATTASNAMASLWSSCVVLPLLALTWMSAVLAMTDKRSILFQILFAVFDSLQGFVIVMVHCILRREVQDAFRCRLRNCQDPINADSSSSFPNGHAQIMTDFEKDVDIACRSVLHKDIGPCRAATITGTLSRISLNDDEEEKGTNPEGLSYSTLPGNVISKVIIQQPTGLHMPMSMNELSNPCLKKENSELRRTVYLCTDDNLRGADMDIVHPQERMMESDYIVMPRSSVNNQPSMKEESKMNIGMETLPHERLLHYKVNPEFNMNPPVMDQFNMNLEQHLAPQEHMQNLPFEPRTAVKNFMASELDDNAGLSRSETGSTISMSSLERRKSRYSDLDFEKVMHTRKRHMELFQELNQKFQTLDRFRDIPNTSSMENPAPNKNPWDTFKNPSEYPHYTTINVLDTEAKDALELRPAEWEKCLNLPLDVQEGDFQTEV | no binding (condition: without co-expressed Stabilin-2)
– | binds | V5-BAI3^CUB (domain or fragment, UniProt O60242 30-159) CSTLVKGVIYGSYSVSEMFPKNFTNCTWTLENPDPTKYSIYLKFSKKDLSCSNFSLLAYQFDHFSHEKIKDLLRKNHSIMQLCNSKNAFVFLQYDKNFIQIRRVFPTNFPGLQKKGEEDQKSFFEFLVLN | –
